The values below come from patent publication US12378320B2, “Methods for treating pancreatitis” (Cold Spring Harbor Laboratory, priority 2018, dated 2025).

For the series, the system named is CA19-9 modified proteins. The experiment in a line: CA19-9 IP/MS (iTRAQ) of organoid conditioned media after Dox treatment. Details: species or system mouse.
[1] abbreviates: A217 (genetic negative) organoids conditioned media, after 8 hours of treatment, CA19-9 IP with 5B1, relative to 17 0H NS19.
Setting [2] is: A217 (genetic negative) organoids conditioned media, after 8 hours of treatment, CA19-9 IP with NS19-9, relative to 17 0H NS19.
Setting [3] is: A217 (genetic negative) organoids conditioned media, before treatment (0H), CA19-9 IP with NS19-9, relative abundance, reference channel.
The mark [4] stands for this setting: A220 (C;R^LSL;F) organoids conditioned media, before treatment (0H), CA19-9 IP with 5B1, relative to 17 0H NS19.
Where [5] appears, read: CA19-9 IP/MS relative abundance, A217 (genetic negative) organoid conditioned media, 0H (before treatment), IP with NS19-9, reference channel = 1.
The mark [6] stands for this setting: CA19-9 IP/MS relative abundance, A217 (genetic negative) organoid conditioned media, after 8 hours, IP with 5B1.
The mark [7] stands for this setting: CA19-9 IP/MS relative abundance, A217 (genetic negative) organoid conditioned media, after 8 hours, IP with NS19-9.
[8] abbreviates: CA19-9 IP/MS relative abundance, A220 (C;R^LSL;F) organoid conditioned media, 0H (before treatment), IP with 5B1.

B1: Q8VDM4 (protein, UniProt Q8VDM4 1-908, looked up)
chain: MEEGGRDKTPVQSQQPSATTPSGADEKSSGKERRDAGEKDKEQELSEEDKQLQDELEMLVERLGEKDTSLYRPALEELRRQIRSSTTSMTSVPKPLKFLRPHYGKLKEIYENMAPGENKCFAADIISVLAMTMSGERECLKYRLVGSQEELASWGHEYVRHLAGEVAKEWQELDDAEKAQREPLLTLVKEIVPYNMAHNAEHEACDLLMEIEQVDMLEKDIDENAYAKVCLYLTSCVNYVPEPENSALLRCALGVFRKFSRFPEALRLALMLNDMELVEDIFTSCKDVVVQKQMAFMLGRHGVFLELSEDVEEYEDLTEIMSNVQLNSNFLALARELDIMEPKVPDDIYKTHLENNRFGGSGSQVDSARMNLASSFVNGFVNAAFGQDKLLTDDGNKWLYKNKDHGMLSAAASLGMILLWDVDGGLTQIDKYLYSSEDYIKSGALLACGIVNSGVRNECDPALALLSDYVLHNSNTMRLGSIFGLGLAYAGSNREDVLTLLLPVMGDSKSSMEVAGVTALACGMIAVGSCNGDVTSTILQTIMEKSETELKDTYARWLPLGLGLNHLGKGEAIEAILAALEVVSEPFRSFANTLVDVCAYAGSGNVLKVQQLLHICSEHFDSKEKEEDKDKKEKKDKDKKEAPADMGAHQGVAVLGIALIAMGEEIGAEMALRTFGHLLRYGEPTLRRAVPLALALISVSNPRLNILDTLSKFSHDADPEVSYNSIFAMGMVGSGTNNARLAAMLRQLAQYHAKDPNNLFMVRLAQGLTHLGKGTLTLCPYHSDRQLMSQVAVAGLLTVLVSFLDVRNIILGKSHYVLYGLVAAMQPRMLVTFDEELRPLPVSVRVGQAVDVVGQAGKPKTITGFQTHTTPVLLAHGERAELATEEFLPVTPILEGFVILRKNPNYDL
modifications: full-length
As for B1, the “17 8H 5B1” value under setting [1] worked out at 1.196. Further, the “17 8H NS19” value under setting [2] was found to be 0.322. The “17 0H NS19” value under setting [3] stood at 1. In addition, under setting [4], the “20 0H 5B1” value is given as 0.932.

B2: P01806 (protein, UniProt P01806 1-116, looked up)
chain: MDFGLIFFIVALLKGVQCEVKLLESGGGLVQPGGSLKLSCAASGFDFSRYWMSWVRQAPGKGLEWIGEINPDSSTINYTPSLKDKFIISRDNAKNTLYLQMSKVRSEDTALYYCAR
modifications: full-length
For the molecule B2, the “17 8H 5B1” value under setting [1] is listed as 0.663. In addition, under setting [2], the “17 8H NS19” value was found to be 0.897. The “17 0H NS19” value under setting [3] is 1. Further, the “20 0H 5B1” value under setting [4] worked out at 0.639.

B3: Q99LF4 (protein, UniProt Q99LF4 1-505, looked up)
chain: MSRNYNDELQFLDKINKNCWRIKKGFVPNMQVEGVFYVNDALEKLMFEELRNACRGGGVGGFLPAMKQIGNVAALPGIVHRSIGLPDVHSGYGFAIGNMAAFDMNDPEAVVSPGGVGFDINCGVRLLRTNLDESDVQPVKEQLAQAMFDHIPVGVGSKGVIPMNAKDLEEALEMGVDWSLREGYAWAEDKEHCEEYGRMLQADPNKVSPRAKKRGLPQLGTLGAGNHYAEIQVVDEIFNEYAAKKMGIDHKGQVCVMIHSGSRGLGHQVATDALVAMEKAMKRDKIIVNDRQLACARIASPEGQDYLKGMAAAGNYAWVNRSSMTFLTRQAFAKVFNTTPDDLDLHVIYDVSHNIAKVEQHVVDGKERTLLVHRKGSTRAFPPHHPLIAVDYQLTGQPVLIGGTMGTCSYVLTGTEQGMTETFGTTCHGAGRALSRAKSRRNLDFQDVLDKLADMGIAIRVASPKLVMEEAPESYKNVTDVVNTCHDAGISKKAIKLRPIAVIKG
modifications: full-length
Turning to B3, the “17 8H 5B1” value under setting [1] was determined as 1.032. Also, the “17 8H NS19” value under setting [2] came out at 0.711. For the same molecule, under setting [3], the “17 0H NS19” value was 1. Further, the “20 0H 5B1” value under setting [4] was 0.765.

B4: P11679 (protein, UniProt P11679 1-490, looked up)
chain: MSIRVTQKSYKMSTSGPRAFSSRSFTSGPGARISSSSFSRVGSSSSSFRGSMGTGVGLGGFGGAGVGGITAVTVNQSLLSPLKLEVDPNIQAVRTQEKEQIKSLNNKFASFIDKVRFLEQQNKMLETKWSLLQQQKTSRSNMDNMFESYINNLRRQLEALGQEKLKLEAELGNMQGLVEDFKNKYEDEINKRTEMENEFVLIKKDVDEAYMNKVELESRLEGLTDEINFLRQIHEEEIRELQSQISDTSVVLSMDNSRSLDMDGIIAEVRAQYEDIANRSRAEAETMYQIKYEELQTLAGKHGDDLRRTKTEISEMNRNINRLQAEIEALKGQRASLEAAIADAEQRGEMAIKDAQTKLAELEAALQRAKQDMARQLREYQELMNVKLALDIEITTYRKLLEGEESRLESGMQNMSIHTKTTSGYSGGLSSSYGGLTSPGFSYGMSSFQPGFGSAGGSNTFSRTTKAVVVKKIETRDGKLVSESSDVVSK
modifications: full-length
Regarding B4, the “17 0H NS19” value under setting [5] came to 1. Under setting [6], the “17 8H 5B1” value worked out at 3.472. Under setting [7], the “17 8H NS19” value turned out to be 1.075. Besides, under setting [8], the “20 0H 5B1” value came out at 2.793.

B5: Q9DCH4 (protein, UniProt Q9DCH4 1-361, looked up)
chain: MASPAVPANVPPATAAAAPAPVVTAAPASAPTPSTPAPTPAATPAASPAPVSSDPAVAAPAAPGQTPASAPAPAQTPAPSQPGPALPGPFPGGRVVRLHPVILASIVDSYERRNEGAARVIGTLLGTVDKHSVEVTNCFSVPHNESEDEVAVDMEFAKNMYELHKKVSPNELILGWYATGHDITEHSVLIHEYYSREAPNPIHLTVDTGLQHGRMSIKAYVSTLMGVPGRTMGVMFTPLTVKYAYYDTERIGVDLIMKTCFSPNRVIGLSSDLQQVGGASARIQDALSTVLQYAEDVLSGKVSADNTVGRFLMSLVNQVPKIVPDDFETMLNSNINDLLMVTYLANLTQSQIALNEKLVNL
modifications: full-length
On to B5, for which the “17 8H 5B1” value under setting [1] is on record as 3.033. Also, under setting [2], the “17 8H NS19” value is reported as 0.378. The “17 0H NS19” value under setting [3] was 1. In addition, under setting [4], the “20 0H 5B1” value came to 2.683.

B6: P01675 (protein, UniProt P01675 1-107, looked up)
chain: EIVLTQSPAITAASLGQKVTITCSASSSVSYMHWYQQKSGTSPKPWIYEISKLASGVPARFSGSGSGTSYSLTISSMEAEDAAIYYCQQWNYPLWTFGGGTKLEIKR
modifications: full-length
In the case of B6, the “17 8H 5B1” value under setting [1] came to 1.759. For the same molecule, under setting [2], the “17 8H NS19” value was 0.863. Besides, the “17 0H NS19” value under setting [3] is on record as 1. The “20 0H 5B1” value under setting [4] stood at 1.768.

B7: P04104 (protein, UniProt P04104 1-637, looked up)
chain: MSLQCSSRSLCRGGGGSRNFSSGSAGLVSFQRRSTSSSMRRSGGGGGGRFSGGGFCGSSGSGFGSKSLMNLGGGRSISKSVAGGGGSFCGGFGGGSYGGGGFGGGSYGGGGFGGGSFGGGGFGGSGFGGGLGGGGGFGSGGGFGGGRFGSMGPVCPPGGIQEVTINQSLLQPLNVEVDPQIQKVKSQEREQIKSLNDKFASFIDKVRFLEQQNQVLQTKWELLQQVDTTTRTQNLDPFFENYISILRRKVDSLKSDQSRMDSELKNMQDLVEEYRTKYEDEINKRTNAENEFVTIKKDVDSAYMTKVELQAKADALQQDIDFFSALYQMEMSQMQTQISETNVVLSMDNNRSLDLDGIISEVKAQYDSICQRSKAEAETFYQSKYEELQITAGKHGDSVRNTKMEISELNRMIQRLRSEIDGCKKQISQIQQNINDAEQRGEKALKDAQNKLNEIEDALSQCKEDLARLLRDFQELMNTKLALDMEIATYKKLLEGEEIRMSGECTPNVSVSVSTSHTSMSGSSSRGGGSGGGRYGGGGSYGGGSGGGSYGGSSGGGGSGGSYGGGSGGGSYGGGSGGGSSGSHRGGSGGGGGSSGGSYGGSSGGGRGGSSSGGGGVKSSGSSTVKFVSTSYSRGTK
modifications: full-length
B7: the “17 0H NS19” value under setting [5] is reported as 1. Moreover, under setting [6], the “17 8H 5B1” value was 0.711. For the same molecule, under setting [7], the “17 8H NS19” value is given as 1.547. For the same molecule, the “20 0H 5B1” value under setting [8] was determined as 1.083.

B8: P18524 (protein, UniProt P18524 1-117, looked up)
chain: MNFGLRLIFLVLVLKGVLCDVKLVESGGGLVKLGGSLKLSCAASGFTFSSYYMSWVRQTPEKRLELVAAINSNGGSTYYPDTVKGRFTISRDNAKNTLYLQMSSLKSEDTALYYCAR
modifications: full-length
For B8, under setting [1], the “17 8H 5B1” value is on record as 1.188. Further, the “17 8H NS19” value under setting [2] turned out to be 1.131. Further, under setting [3], the “17 0H NS19” value was 1. Further, the “20 0H 5B1” value under setting [4] is reported as 1.014.
